From US20210017280A1 come the findings set out here.

By UniProt entry, the sequences of proteins in these tests, tags left out. Where a name states a change or a piece, a line headed by the entry shows the natural chain unless it says otherwise.
UniProt P20273: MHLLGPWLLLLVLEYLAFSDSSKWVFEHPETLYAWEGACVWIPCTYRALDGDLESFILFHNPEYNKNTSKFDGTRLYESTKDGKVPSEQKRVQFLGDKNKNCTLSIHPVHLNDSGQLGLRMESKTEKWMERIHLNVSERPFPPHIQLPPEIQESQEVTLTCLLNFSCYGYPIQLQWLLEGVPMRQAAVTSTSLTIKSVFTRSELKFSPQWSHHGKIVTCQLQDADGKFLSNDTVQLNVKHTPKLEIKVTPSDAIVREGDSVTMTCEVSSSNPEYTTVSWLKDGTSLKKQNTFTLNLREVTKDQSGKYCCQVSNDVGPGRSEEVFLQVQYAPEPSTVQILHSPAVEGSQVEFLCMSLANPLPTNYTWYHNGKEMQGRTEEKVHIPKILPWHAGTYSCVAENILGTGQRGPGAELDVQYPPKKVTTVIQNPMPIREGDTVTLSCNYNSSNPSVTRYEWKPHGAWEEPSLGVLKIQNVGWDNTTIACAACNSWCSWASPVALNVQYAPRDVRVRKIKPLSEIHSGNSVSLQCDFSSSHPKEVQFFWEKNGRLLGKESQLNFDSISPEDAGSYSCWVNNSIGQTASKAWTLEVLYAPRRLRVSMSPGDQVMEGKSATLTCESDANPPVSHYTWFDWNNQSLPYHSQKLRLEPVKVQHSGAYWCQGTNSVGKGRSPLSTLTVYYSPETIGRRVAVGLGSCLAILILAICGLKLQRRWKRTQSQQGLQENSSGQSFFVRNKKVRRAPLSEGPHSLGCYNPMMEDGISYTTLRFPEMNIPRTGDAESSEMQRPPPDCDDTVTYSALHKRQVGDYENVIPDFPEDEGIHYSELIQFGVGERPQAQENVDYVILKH

The test has as its target full-length human CD22 (human) (UniProt P20273). In words: flow cytometry competition on K562+CD22 cells. A general note: Flow cytometry measures light scatter and fluorescence of single cells or particles in a stream.

Results are given in words; binding and its absence hold for the method and conditions named. Some binding calls cover weakened binding; strength is not graded here.

B1: anti-CD22 CAR (clone 2) conjugated to biotin, used as detecting antibody (antibody, V domains shown)
VH: QVQLVESGGGLVQPGGSLRLSCAASGFTFSNYAMSWVRQAPGKGLEWVSSISGSGGSTYYADSVKGRFTISRDTSKNTLYLQMNSLRAEDTAVYYCARYGSAAWMDSWGQGTLVTVSS
VL: DIQLTQSPSSLSTSVGDRVTITCQASHDIRNYLNWYQQKPGKAPNLLIYAASNLQTGVPSRFSGRGSGTDFTLTISSLQPEDIATYYCQQYDGLPLTFGQGTRLEIKR
modifications: conjugated to biotin (chain and site not stated)
B1: the binding result is reported as “binds”.
